From patent publication US6649628B1, “N-[2-hydroxy-3-(1-piperidinyl)propoxy]pyridine-1-oxide-3-carboximidoyl chloride and its use in the treatment of insulin resistance” (Biorex Kutato es Fejleszto RT, priority 1999, dated 2003)

Tested on: high fat (HF) diet insulin resistant male Wistar rats
Assay: Experiment 8: in vivo insulin-dependent glucose uptake (euglycaemic glucose clamp) in dietary induced insulin resistance
Conditions: 20 mg/kg daily, 3 weeks

O=C(O)/C=C\C(=O)O.[O-][n+]1cccc(C(Cl)=NOC[C@H](O)CN2CCCCC2)c1 [A(+), (+)-/R/-N-[2-hydroxy-3-(1-piperidinyl)-propoxy]-pyridine-1-oxide-3-carboximidoyl chloride (Z)-2-butenedioate (1:1)]
effect on body weight: did not affect | effect on food consumption: did not affect

O=C(O)/C=C\C(=O)O.[O-][n+]1cccc(C(Cl)=NOC[C@@H](O)CN2CCCCC2)c1 [A(−), (−)-/S/-N-[2-hydroxy-3-(1-piperidinyl)-propoxy]-pyridine-1-oxide-3-carboximidoyl chloride (Z)-2-butenedioate (1:1)]
effect on body weight: did not affect | effect on food consumption: did not affect
